Reference: patent US11851697B2, “Ex vivo protease activity detection for disease detection/diagnostic, staging, monitoring and treatment” (Glympse Bio, Inc., priority 2020, dated 2023)
Some entries share one result that the patent states for a list of compounds. At least one structure is not confirmed: it was looked up by name or label, or the drawing left a doubt.

System: proteases in NASH and healthy plasma cleaving Probe #102
Experiment: Inhibitor profiling of Probe #102 cleavage in NASH and healthy plasma
Type: biochemical, mice
Conditions: Probe #102, 6 uM, plasma diluted in PBS
Protocol: For this experiment, all plasma samples were prepared individually and diluted 1/10e in PBS with inhibitor added directly to the samples. Inhibitor was prepared at 15× concentration to final. Substrates were diluted in DI water at 18 uM, such that the final concentration on the plate would be 6 uM. All samples were prepared such that their last dilution on the plate would not affect the desired final concentration. 10 ul of each individual sample was pipetted into their corresponding wells, and the plate was then spun down in the centrifuge at 1500 RPM for 30 seconds to coat the bottom of each well with the sample. 5 ul of the 18 uM substrate solution was pipetted into each well being used on a 384 well plate, and then the plate was spun down in the centrifuge at 1500 rpm for 30 seconds. The plate was placed immediately in the plate reader at 37° C. for a 30-minute-long fluorescence kinetic read at 485/535 extended gain.
To assess the proteolytic cleavage pattern of Probe #102, samples were tested using a pool of broad inhibitors for serine, cysteine, threonine, MMP and aspartic protease family members (broad inhibitor) to assess general protease activity, AEBSF for serine proteases, E64 for cysteine proteases, CTSi for broad cathepsin inhibition of cathepsins L, S, K and B, or specific inhibitors for cathepsin K (L00625), for cathepsin L (SID) or cathepsin B (CA074).

## CC(C)C[C@H](NC(=O)[C@H]1O[C@@H]1C(=O)O)C(=O)NCCCCN=C(N)N [Probe E64, E64]
  decrease in the RFU signal contrast between NASH and healthy samples: greater than 6 fold
